For the test, the system named is Clinical isolates that have been adapted to cause infection in mice. Nature of the test: In vivo antibacterial protection, 7 day survival of infected mice. Also noted: species or system mice strain CD-1. Particulars: Mus musculus, 168 h, read-out: ED50 mg/kg. An excerpt:
In Vivo Antibacterial Protection
Female mice strain CD-1, approximately 18-22 grams, were received from Charles River Laboratories and quarantined 7 days prior to use. In addition, mice may be rendered neutropenic using cytoxan.
Clinical isolates that have been adapted to cause infection in mice, are used in the experiment, including infections with strains of E. coli, K. pneumoniae, M. morganii, E. cloacae, S. marcescens, C. freundii, staphylococci, streptococci, P. aeruginosa and N. gonorrhoeae.
Mice are challenged by injecting 0.5 ml intraperitoneally or 0.05 ml intranasally of a predetermined bacterial inoculum suspended in broth, saline or hog gastric mucin (supplemented with dried bovine hemoglobin for N. gonorrhoeae). […] Antibacterial doses (dose concentration prepared by two fold serial dilutions of the antibiotic) are dissolved or suspended in 0.2% aqueous agar or methocel, phosphate buffered saline or an adjuvant are administered orally, subcutaneously or intravenously in the following manner: • a) Orally or subcutaneously: Dose volume of 0.5 ml administered ½ hr after infection. […]
The protective effects of the antibacterial agent(s) are measured by the survival of the infected untreated as compared to the treated animals. […]

Here are results for one compound from patent US7812014B2, “Bicyclic 6-alkylidene-penems as β-lactamase inhibitors” (priority 2002, dated 2010).

Structures can show the parent of a compound that is named as a salt.

Turning to `O=C(O)C1=CS[C@@H]2/C(=C\c3cc4n(n3)CCC4)C(=O)N12` [Example 8, (5R),(6Z)-6-(5,6-Dihydro-4H-pyrrolo[1,2-b]pyrazol-2-ylmethylene)-7-oxo-4-thia-1-azabicyclo[3.2.0]hept-2-ene-2-carboxylic acid, sodium salt], the ED50 was 18.9 mg/kg.
